Library screening results

Measurements from “University of Dundee, Small-Polar-MMV Screening Library” (2021), ChEMBL document CHEMBL3988442.

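Whole-cell assay for inhibitors of Mycobacterium tuberculosis growth, labelled Cornell in the record; the read-out is not stated. The concentration is filed as 10 mM, unlikely as a test dose, so the dose is not known. Higher means stronger inhibition (inferred from two other growth screens of the library). Of about 53,000 compounds tested this way, about 900 (1.7%) reached 50% or more in at least one test.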

Each number is a percent effect as filed. The controls that fix the scale are not given in the record; negative values are as filed. The compounds are a random part of those screened.

structure | Percent Effect
[H][C@@]12CCN(C(=O)Cc3csc4ccccc34)C[C@]1([H])OCCNC2=O | 1.915
CNC(=O)c1cn[nH]c1C1(C)CCCN(Cc2ccccn2)C1 (stereo not given) | -4.929
COCCN1CCc2ncnc(-c3ccccc3)c2CC1.O=C(O)C(F)(F)F | 11.99
Cc1cccc(N2Cc3nc(N4CCC(C)CC4)ncc3C2=O)c1 | -7.447
COCCN(Cc1ccc(F)cc1Cl)C(=O)c1cnn(C)c1C | -37.51
CC(=O)NCC(=O)N1CCN(Cc2ccncc2)c2ncccc2C1 | -22.37
CCOCCNS(=O)(=O)c1cc(C)c2nc(O)cc(C)c2c1 | -32.17
NC(=O)c1ccc(C2CCCN2C(=O)CCc2nc3ccccc3s2)s1 (stereo not given) | -11.96
CS(=O)(=O)CCSCc1ccc(Br)c(F)c1 | 1.935
O=C([C@@H](O)Cc1ccccc1)N1CCCn2cncc2C1 | -40.85
Cc1cc(NC(=O)C(C)Cn2cc(Br)cn2)no1 (stereo not given) | 1.208
CC1(C)OCC2(CO1)CN(S(=O)(=O)c1ccc(Br)s1)C2 | -1.931
Cc1cccc(-c2nc(C)nn2CC(=O)NC(C)C2CC2)c1 (stereo not given) | 6.315
COc1ccccc1OC1(C(=O)O)CCN(c2cnccn2)CC1 | -15.33
CCN(CC)C(=O)[C@@H]1C[C@@H](n2cc(-c3ccccn3)nn2)CN1 | 6.206
CN(Cc1cccs1)Cc1nnsc1Cl | -0.665
Cc1nc(CN2CCCn3nc(CNC(=O)C4CCC4)cc3C2)co1 | 17.69
COc1ccc(-c2cc(CN)nc3ccnn23)cc1.Cl | 6.933
CCc1nc(NC(=O)NCCc2cccc(C)n2)nn1C | 3.805
NC(=O)CN1CCC(C(=O)N2CCCC(OCc3cccnc3)C2)CC1 (stereo not given) | -3.957
COc1ccc(-c2nnc(SC(C)C(=O)NC3CC3)[nH]2)c(OC)c1 (stereo not given) | -4.659
CCc1cc(O)nc(C2CCCN2C(=O)COC)n1 (stereo not given) | -3.888
COCCNc1cc(-c2ccccc2C(=O)O)c2cc[nH]c2n1 | 31.99
CN(CCCc1ccc(C(F)(F)F)cc1)Cc1nccn1C | 31.86
Cc1cccc(C2(NC(=O)CCN3C(=O)CCC3=O)CCCC2)c1 | 1.584
C1CN(c2nc3c(c(NC4CC4)n2)CN(CC2CCOC2)CC3)CCO1 (stereo not given) | -33.45
COc1c(CNCc2ccc(N3CCOCC3)cc2)c(C)nn1C | 4.53
CC(C)n1nc(CNc2ncccn2)c2c1CN(C1CCOCC1)CC2.O=C(O)C(F)(F)F | 14.07
Cc1occc1C(=O)N1CCCC1c1ccc(C(=O)N2CCOCC2)s1 (stereo not given) | 24.46
CC(=O)N1CCN(CCNc2ncc(Br)cc2C)CC1 | 20.96
O=C(O)C(F)(F)F.[H][C@@]12OCCN(C(=O)c3cc(C)[nH]c3C)[C@@]1([H])CC[C@H]2Oc1ccccn1 | 42.95
CCc1nc(C2CCCN2C(=O)CCc2cccs2)no1 (stereo not given) | 14.11
C[C@@H]1CN(Cc2cccnc2)C[C@]1(C)O | 6.457
COC(=O)c1cc(OCC2CCC2)cc(C(=O)N[C@H](C)C(N)=O)c1 | -27.01
O=C(O)C(F)(F)F.[H][C@@]12CN(Cc3nccn3C)C[C@@]1([H])N(Cc1cccc(C)c1)C(=O)CO2 | 15.89
Cc1cccc(CCC(=O)Nc2cccnc2N2CCC(O)CC2)c1 | -15.85
CCn1cnnc1C1CCN(C(=O)c2cccc3c2ccn3C)CC1 | -25.2
CNc1nc2c(c(C(=O)N3CCCC3)n1)CN(Cc1nccn1C)CC2 | 34.33
CCC(CO)N(Cc1cccs1)C(=O)CSC (stereo not given) | -4.846
COc1ccc(C2CC(=O)Nc3c2cnn3C2CCCC2)cc1 (stereo not given) | 23.62
c1cncc(CN2CCC3(CCCN(c4nncs4)C3)C2)c1 (stereo not given) | -7.584
Cc1nc2c(c(NC(C)C)n1)CCN(C(=O)c1ccno1)CC2.O=C(O)C(F)(F)F | -1.082
CC(C)N1CCc2c(c(COc3cncnc3)nn2CC2CC2)C1.O=C(O)C(F)(F)F | 14.97
Cc1ccc(NC(=O)NCCn2cnc(C)c(C)c2=O)cc1F | -2.28
Cc1nccn1-c1ccc(N2CCC(NC(C)C(C)C)CC2)cc1 (stereo not given) | -4.327
[H][C@@]12COC[C@@H](CC(=O)NCCOC)[C@]1([H])CN(C(=O)c1cnccn1)C2 | 19.3
COCC(=O)N1CCC2(CC1)CCn1c(-c3cccc(OC)c3)cnc12 | -31.61
NC(=O)C1Cn2ccnc2C2(CCN(C(=O)c3ccncc3)CC2)O1 (stereo not given) | 19.81
O=C(O)C(F)(F)F.[H][C@@]12CN(C(=O)CC)CCC[C@]1(C(=O)N(C)C)CN(c1ccccn1)C2 | 11.41
O=C(NCC(F)(F)F)C1CSCN1S(=O)(=O)c1cccc(F)c1 (stereo not given) | -17.61
CN(C)CCN1CC(C(=O)NCc2cn3cccnc3n2)CC1=O (stereo not given) | 1.417
O=C(CCN1CCCC(CO)(CC2CC2)C1)NCc1cccc(Cl)c1 (stereo not given) | 30.61
Cc1nc(CN2CCC(C(=O)N(C)C3CCC(C)CC3)CC2)cs1 (stereo not given) | 29.23
COCCNc1ccccc1CNC(=O)NCc1nc(C)c(C)s1 | -8.936
Cc1cccn2c(CC(=O)N3CCC(CCn4cccn4)CC3)cnc12 | -35.53
CC(C)CC(=O)Nc1c(-c2ccc(F)cc2)ncn1C | -17.58
O=C1CN(C(=O)C2CN(c3ccc(F)cc3)CCO2)CCN1 (stereo not given) | 15.22
O=C(NCc1cccs1)C1CCCN(c2cc(-n3cncn3)ncn2)C1 (stereo not given) | 2.292
O=S1(=O)CCC(CNc2cc(-c3ccccc3)nc3ccnn23)C1 (stereo not given) | 24.56
CCOC(=O)c1n[nH]cc1-c1cncn1CCCn1nc(C)cc1C.Cl | 25.38
Cc1cc2nccc(C3CCN(C(=O)c4ccccc4F)CC3)n2n1 | 6.226
Cn1cc(Cl)cc1C(=O)N1CCC2(CCCN(CC3CC3)C2=O)C1 (stereo not given) | -23.49
Cc1ccsc1CN(CCCC(F)(F)F)Cc1ccccn1 | 35.71

Some entries from above, unchanged:

* O=S1(=O)CCC(CNc2cc(-c3ccccc3)nc3ccnn23)C1 (stereo not given) | 24.56%
* Cc1cc2nccc(C3CCN(C(=O)c4ccccc4F)CC3)n2n1 | 6.226%
* Cc1cccc(C2(NC(=O)CCN3C(=O)CCC3=O)CCCC2)c1 | 1.584%
* Cc1cccc(N2Cc3nc(N4CCC(C)CC4)ncc3C2=O)c1 | -7.447%